Experimental data published in patent US4070492A, “Propranolol assay” (priority 1977, dated 1978).

System: antisera against d,l-propranolol and l-propranolol
Experiment: Sensitivity of radioimmunoassay for d,l-propranolol and its l-isomer in phosphate-buffered saline and serum
Design: species or system rabbit
Conditions: for detection limit of radioimmunoassay: both antisera; for upper limit of linearity of radioimmunoassay: linear up to

CC(C)NC[C@H](O)COc1cccc2ccccc12 [l-propranolol]
detection limit of radioimmunoassay: 10 pg
upper limit of linearity of radioimmunoassay: 2,000 pg

CC(C)NCC(O)COc1cccc2ccccc12 (racemic) [propranolol]
detection limit of radioimmunoassay: 10 pg
upper limit of linearity of radioimmunoassay: 5,000 pg
